# Measurements from PubChem BioAssay AID901 (National Center for Advancing Translational Sciences (NCATS), 2007).
# The other results are listed elsewhere or left out. The main result of the screen is listed elsewhere. These columns were measured beside it and carry no call. The list favours compounds with an active or inconclusive main result. Words in brackets tell the shape of the fitted curve; partial curves, single points and poor fits give uncertain potencies.
# Experiment: qHTS Assay for Identifying the Cell-Membrane Permeable IMPase Inhibitors
# Conditions: CHO-M1 cells, IP1 accumulation, HTRF TR-FRET ratio; measured here: donor channel 620 nm AC50
row,Structure (SMILES),AC50
1,Clc1nc(-c2ccccc2)cc(-c2ccccc2)n1,"0.501 µM [falling, full curve, poor fit]"
2,Cc1cccc(-n2c(SCC(N)=O)nnc2-c2ccccn2)c1C,"0.631 µM [falling, single point]"
3,CCOC(=O)C(NC(=O)Cc1ccccc1)(Nc1cc(C)on1)C(F)(F)F (configuration not stated),"0.251 µM [rising, single point]"
4,Cc1nn(Cc2ccc(Cl)cc2Cl)c(C)c1NC(=O)CCl,"12.6 µM [falling, single point]"
5,Cc1noc(C)c1C(=O)OCC(=O)c1c[nH]c2ccccc12,"3.98 µM [falling, single point]"
6,Cc1ccc(S(=O)(=O)N(C)C)cc1-n1c(SCC(=O)Nc2ccc(F)cc2)nc2ccccc2c1=O,"0.0251 µM [falling, full curve, poor fit]"
7,Cc1ccc(C(=O)Nc2ccc(S(=O)(=O)N3CCN(C)CC3)cc2)o1,"8.91 µM [falling, partial curve, poor fit]"
8,CCOC(=O)N1CCN(C(=O)c2nn(-c3ccc(C)cc3)c(=O)c3c2c2ccccc2n3C)CC1,"25.1 µM [rising, single point]"
9,COC(=O)[C@@H](NC(=O)NC1CCCc2ccccc21)C(C)C (some centres not stated),"0.501 µM [rising, partial curve, poor fit]"
10,O=C(O)c1ccc(S(=O)(=O)c2ccccc2)cc1,"0.0251 µM [falling, full curve, poor fit]"
11,Cc1onc(-c2ccccc2)c1C(=O)Nc1nnc(-c2ccncc2)s1,"12.6 µM [rising, partial curve, poor fit]"
12,COc1ccc(-c2noc(-c3ccc(Br)o3)n2)cc1OC,"31.6 µM [rising, single point]"
13,COc1ccc(Nc2ccc3c(c2)=NC2(CCCCC2)[N+]=3[O-])cc1,"12.6 µM [falling, single point]"
14,COc1ccc(CCNC(=O)c2cc(=O)[nH]c3ccc(Br)cc23)cc1OC,"35.5 µM [rising, single point]"
15,O=[N+]([O-])c1ccc(COc2cccc(CNc3ccc(F)cc3)c2)cc1,"5.62 µM [falling, single point]"
16,COc1ccccc1-c1cc(-c2ccccc2)nc(SC(C(N)=O)c2ccccc2)c1C#N (configuration not stated),"31.6 µM [rising, single point]"
17,CC(=O)Nc1ccc(/C=C/c2noc(-c3ccccc3O)n2)cc1,"0.447 µM [falling, partial curve]"
18,CCOC(=O)c1ccc(NC(=O)CN2C(=O)C(CC)SC(CC)C2=O)cc1 (configuration not stated),"0.00631 µM [rising, full curve, poor fit]"
19,COc1ccc(-c2noc(CCC(=O)N(C)c3cc(Cl)ccc3OC)n2)cc1,"5.62 µM [falling, single point]"
20,COc1ccc(NC(=O)CN2CCN(c3ccccc3F)CC2)cc1,"0.00631 µM [rising, full curve, poor fit]"
21,OC(COCc1ccccc1)CN1CCN(c2ccccc2F)CC1 (configuration not stated),"31.6 µM [rising, single point]"
22,Cn1c(=O)[nH]c(=O)c2c1nc(Br)n2CCCc1ccccc1,"0.141 µM [falling, full curve, poor fit]"
23,CCOC(=O)c1c(NC(=O)CN2C(=O)NC3(CCCCC3)C2=O)sc(C)c1-c1ccc(C)cc1,"35.5 µM [rising, single point]"

row,Structure (SMILES),AC50
1,Cc1cc(Cl)cc(C)c1OCCCCN1CCOCC1,"25.1 µM [rising, single point]"
2,NS(=O)(=O)c1ccc(NC(=O)COC(=O)CCC2CCCCC2)cc1,"35.5 µM [rising, single point]"
3,OCC(C#CCN1CCCCC1)NCc1ccccc1 (configuration not stated),"0.0631 µM [rising, partial curve, poor fit]"
4,Nc1nnnn1/N=C\c1ccc(Cl)c([N+](=O)[O-])c1,"0.126 µM [falling, full curve, poor fit]"
5,CCCN(CCC)C(=S)NC(=O)c1ccc(Cl)cc1Cl,"3.98 µM [falling, partial curve, poor fit]"
6,Cn1c(=O)[nH]c(=O)c2c1nc(NC1CCCCC1)n2Cc1ccccc1,"3.98 µM [falling, full curve]"
7,CCOC(=O)c1c(NC(=O)/C=C/c2ccc(C)o2)sc(C)c1C,"20 µM [rising, single point]"
8,COc1ccc2[nH]c(C(=O)O)c(NS(=O)(=O)c3ccc(OC)c(OC)c3)c2c1,"0.0316 µM [falling, full curve, poor fit]"
9,Cc1ccc(C)c(NC(=O)C2Cc3ccccc3CN2C(=O)OCc2ccccc2)c1 (configuration not stated),"0.2 µM [rising, full curve, poor fit]"
10,O=C(NC1CCCCC1)N1CCN(c2ccccc2)CC1,"31.6 µM [falling, single point]"
11,Cn1c(SCC(=O)Nc2nccs2)nnc1-c1ccco1,"3.16 µM [falling, partial curve]"
12,N#Cc1cn(Cc2cccc(Cl)c2)c2ccccc12,"0.501 µM [falling, single point]"
13,CC(C)CN(C(=O)COC(=O)CCc1c[nH]c2ccccc12)C1CCS(=O)(=O)C1 (configuration not stated),"1.26 µM [falling, single point]"
14,COc1ccc(-c2nnc(CSc3nc4ccccc4c(=O)n3C)o2)cc1OC,"12.6 µM [rising, single point]"
15,COc1ccccc1C(=O)n1nc(-c2ccc(Cl)cc2)nc1N,"0.0447 µM [falling, single point]"
16,Cc1ccc(NS(=O)(=O)c2ccc3nc(-c4ccccc4)[nH]c3c2)cc1Cl,"0.0224 µM [falling, full curve, poor fit]"
17,CNC(=O)c1cc2ccccc2o1,"0.794 µM [falling, full curve]"
18,O=C(CCS(=O)(=O)c1cc(Br)cc2c1N(C(=O)C1CC1)CC2)N1CCN(c2ccccc2)CC1,"1.12 µM [falling, full curve, poor fit]"
19,CN(C)c1ccc(-n2cccc2/C=C2/SC(=Nc3ccc(F)cc3)NC2=O)cc1,"20 µM [rising, single point]"
20,COC(=O)c1c(N)c(C#N)c2n1CCCCC2,"0.501 µM [falling, single point]"
21,COc1ccc(S(=O)(=O)NCc2ccc(C(=O)O)cc2)cc1,"0.794 µM [falling, single point]"
22,CCOC(=O)CSc1nncc2ccc(OC)c(OC)c12,"0.251 µM [falling, full curve, poor fit]"
23,O=C1NC(=S)S/C1=C1\Sc2ccccc2N1CCCS(=O)(=O)O,"25.1 µM [falling, single point]"

# A draw from above in order of SMILES length, ascending.
row,Structure (SMILES),AC50
3,OCC(C#CCN1CCCCC1)NCc1ccccc1 (configuration not stated),"0.0631 µM [rising, partial curve, poor fit]"
5,CCCN(CCC)C(=S)NC(=O)c1ccc(Cl)cc1Cl,"3.98 µM [falling, partial curve, poor fit]"
2,NS(=O)(=O)c1ccc(NC(=O)COC(=O)CCC2CCCCC2)cc1,"35.5 µM [rising, single point]"

# Continuation.

row,Structure (SMILES),AC50
1,N#Cc1nc(-c2cccs2)oc1NCc1ccc2c(c1)OCO2,"12.6 µM [rising, single point]"
2,CCn1nccc1C(=O)Nc1cc(Cl)cc(Cl)c1,"5.01 µM [falling, single point]"
3,O=C(c1ccccc1)c1ccc(N2CCOCC2)c(NC(=O)c2ccco2)c1,"3.98 µM [falling, full curve, poor fit]"
4,CCCCn1c(NC(C)CC)nc2c1c(=O)[nH]c(=O)n2C (configuration not stated),"10 µM [falling, partial curve]"
5,c1coc(-c2nnc3sc(-c4cccs4)nn23)c1,"0.2 µM [falling, full curve, poor fit]"
6,S=c1[nH]nc(-c2cccc(Br)c2)o1,"15.8 µM [rising, partial curve]"
7,CCc1ccc2c(c1)cc(CN(C(=S)Nc1ccc(Cl)cc1)C1CC1)c1nnnn12,"31.6 µM [rising, single point]"
8,O=C(c1cc2c(s1)-c1ccccc1OC2)N1CCN(c2ccccn2)CC1,"12.6 µM [rising, partial curve]"
9,COC(=O)c1ccccc1NC(=O)c1ccc(-c2ccccc2F)o1,"35.5 µM [rising, single point]"
10,COc1ccc(C)cc1Nc1nc2ccccc2c2nnc(C)n12,"5.62 µM [rising, single point]"
11,CCOC(=O)CSC1=N/C(=C\c2cccnc2)C(=O)N1c1ccc(OC)cc1,"35.5 µM [rising, partial curve]"
12,Cc1cc(C)c2c(=O)n(-c3ccccc3)[nH]c2n1,"31.6 µM [falling, single point]"
13,Cc1ccc(C)c2sc(NC(=O)c3ccc(N4CCCCC4)c([N+](=O)[O-])c3)nc12,"1 µM [falling, partial curve, poor fit]"
14,COc1cccc(C2/C(=C(\O)c3ccc(OC)c(OC)c3)C(=O)C(=O)N2c2cc(C)on2)c1 (configuration not stated),"12.6 µM [rising, partial curve]"
15,CCN1C(=O)c2ccccc2S(=O)c2ccc(C(=O)N3CCCC3)cc21 (configuration not stated),"6.31 µM [falling, partial curve, poor fit]"
16,O=C(NCCCc1ccccc1)C1CC(=O)N(c2ccc3c(c2)OCCO3)C1 (configuration not stated),"31.6 µM [falling, single point]"
17,CCCCNC(=O)CCSc1nc2nc(C)cc(C)n2n1,"6.31 µM [rising, single point]"
18,COc1cc(NC(=O)c2ccc(COc3ccccc3Br)o2)cc(OC)c1OC,"0.562 µM [falling, full curve]"
19,CCOc1ccccc1NC(=O)c1ccc(NC(=O)c2ccco2)cc1,"10 µM [falling, partial curve]"
20,CC(C)C(=O)Nc1nnc(CCc2nnc(NC(=O)C(C)C)s2)s1,"0.126 µM [falling, full curve]"
21,O=C(NCc1ccccc1)N1CCn2c(nc3ccccc32)C1,"0.251 µM [falling, full curve]"
